Experimental data: PubChem BioAssay AID248 (DTP/NCI, 2004)
The list is a part of this screen's results and no random one: it is rich in T/C values a quarter to a half above the control, in often repeated tests (any T/C) and in doses without a T/C. Further doses and runs are listed elsewhere. T/C gives the treated animals as a percentage of the vehicle group. Some doses have a count of surviving animals in place of a T/C: the source files T/C as zero there, which appears to mark a toxic dose or a test without result, not a measured value. Some survivor counts are full or nearly so, which does not show that the dose was tolerated: the source hardly ever lists a survival T/C far under the control, and the zero likely stands for such cases as well. Counts of survivors are from the toxicity check (mostly the fifth day) where no day follows; animals may have died later. Schedules are NCI's codes, taken here to give the interval after Q, in days (D) or hours (H), and the number of doses after X. Some schedule codes hold Z or #, which are not explained here. Where survival is the endpoint, the PubChem record calls one and a half times the control and up active, and a quarter to a half above the control has no call in these data; cut-offs in other NCI protocols can differ. Marks such as (2×) count equal records among those shown. Some doses were run more than once; the values are given in rising order.

System: L1210 leukemia ip in BDF1 mice, survival T/C
Assay: NCI In Vivo Anticancer Drug Screen. Data for tumor model L1210 Leukemia (intraperitoneal) in B6D2F1 (BDF1) mice
Conditions: higher T/C = longer survival; for T/C: T/C endpoint: median survival time; for survivor count: T/C endpoint: mean survival time
[1] = dose: 400.0 mg/kg/injection, schedule: Q04DX003 (ip), vehicle: saline
[2] = dose: 400.0 mg/kg/injection, schedule: Q04DX002 (ip), vehicle: saline with Tween-80

## CC(=O)NC(CS)C(=O)O (stereo not drawn)
dose: 500.0 mg/kg/injection, schedule: Q01DX001 (ip), vehicle: saline, evaluated on day 5
  T/C: 98 % of control
dose: 500.0 mg/kg/injection, schedule: Q01DX001 (ip), vehicle: saline, evaluated on day 30
  T/C: 100 % of control
dose: 500.0 mg/kg/injection, schedule: Q01DX001 (ip), vehicle: saline, evaluated on day 55
  T/C: 98 % of control
dose: 500.0 mg/kg/injection, schedule: Q01DX001 (ip), vehicle: saline, evaluated on day 60
  T/C: 100 % of control
dose: 500.0 mg/kg/injection, schedule: Q01DX001 (ip), vehicle: saline, evaluated on day 62
  T/C: 100 % of control
dose: 1000.0 mg/kg/injection, schedule: Q01DX001 (ip), vehicle: saline, evaluated on day 5
  T/C: 90, 95, 98, 127 % of control
dose: 1000.0 mg/kg/injection, schedule: Q01DX001 (ip), vehicle: saline, evaluated on day 30
  T/C: 94 % of control
dose: 1000.0 mg/kg/injection, schedule: Q01DX001 (ip), vehicle: saline, evaluated on day 45
  T/C: 94 and 105 % of control
dose: 1000.0 mg/kg/injection, schedule: Q01DX001 (ip), vehicle: saline, evaluated on day 55
  T/C: 90 % of control
dose: 1000.0 mg/kg/injection, schedule: Q01DX001 (ip), vehicle: saline, evaluated on day 60
  T/C: 100 % of control
dose: 1000.0 mg/kg/injection, schedule: Q01DX001 (ip), vehicle: saline, evaluated on day 62
  T/C: 100 % of control
dose: 1000.0 mg/kg/injection, schedule: Q01DX001 (ip), vehicle: saline, evaluated on day 90
  T/C: 100 % of control (2×)
dose: 1500.0 mg/kg/injection, schedule: Q01DX001 (ip), vehicle: saline, evaluated on day 5
  T/C: 95, 100, 133 % of control
dose: 1500.0 mg/kg/injection, schedule: Q01DX001 (ip), vehicle: saline, evaluated on day 45
  T/C: 94 and 111 % of control
dose: 1500.0 mg/kg/injection, schedule: Q01DX001 (ip), vehicle: saline, evaluated on day 90
  T/C: 100 and 111 % of control

## COc1ccc(C2NC(=O)N3C(c4ccc(OC)cc4)NC(=O)N23)cc1 (stereo not drawn)
dose: 200.0 mg/kg/injection, schedule: Q04DX003 (ip), vehicle: gum acacia
  survivor count: 6 of 6

## CN(CCCl)c1ccc(C2N(Cc3ccccc3)c3ccccc3N2Cc2ccccc2)cc1
dose: 25.0 mg/kg/injection, schedule: Q01DX001 (ip), vehicle: carboxymethylcellulose (CMC)
  survivor count: 1 of 4
dose: 50.0 mg/kg/injection, schedule: Q01DX001 (ip), vehicle: carboxymethylcellulose (CMC)
  survivor count: 0 of 4

## COc1cc2c(cc1OC)[C@H]1CNC[C@H]1[C@@H](c1ccccc1)C2
[1]
  survivor count: 0 of 6

## NC(=S)N1CCCCC1
dose: 400.0 mg/kg/injection, schedule: Q01DX001 (ip), vehicle: saline
  survivor count: 2 of 4

## CC(C)(C)C(=O)C=C(C(F)(F)F)C(F)(F)F
dose: 50.0 mg/kg/injection, schedule: Q01DX009 (ip), vehicle: saline
  survivor count: 0 of 6
dose: 100.0 mg/kg/injection, schedule: Q04DX003 (ip), vehicle: saline
  survivor count: 6 of 6
dose: 200.0 mg/kg/injection, schedule: Q04DX003 (ip), vehicle: saline
  survivor count: 3 of 6
[1]
  survivor count: 0 of 6

## O=C1C=CC(=O)N1c1ccc(Cc2ccc(N3C(=O)C=CC3=O)cc2)cc1
dose: 17.7 mg/kg/injection, schedule: Q01DX Z (ip), vehicle: methylcellulose (MC)
  survivor count: 6 of 6

## CN1CCC(O)(c2ccccc2)C(/C(=N/O)c2ccccc2)C1 (stereo not drawn)
[1]
  survivor count: 6 of 6

## CCOc1cc(OCC)c(C=O)c(OCC)c1
dose: 100.0 mg/kg/injection, schedule: Q01DX001 (ip), vehicle: saline
  survivor count: 6 of 6

## C=CCc1cc(CN2CCOCC2)c(O)c(OC)c1
dose: 50.0 mg/kg/injection, schedule: Q04DX002 (ip), vehicle: Klucel (hydroxypropylcellulose) (HPC)
  survivor count: 3 of 3
dose: 200.0 mg/kg/injection, schedule: Q04DX002 (ip), vehicle: Klucel (hydroxypropylcellulose) (HPC)
  survivor count: 3 of 3

## Br[CH2][Sn]([Br])([Br])[CH2]Br
dose: 100.0 mg/kg/injection, schedule: Q04DX002 (ip), vehicle: saline with Tween-80
  survivor count: 0 of 3
dose: 200.0 mg/kg/injection, schedule: Q04DX002 (ip), vehicle: saline with Tween-80
  survivor count: 0 of 3
[2]
  survivor count: 0 of 3

## CCCCOC(=O)COc1cc(Cl)c(Cl)cc1Cl
[2]
  survivor count: 1 of 3
